Results from the supplement of paper PMC12819154, “High-throughput peptide-centric local stability assay extends protein–ligand identification to membrane proteins, tissues and bacteria” (Nature Structural & Molecular Biology, 2025).
This is a selection; strong and weak results do not stand in their true shares. Small differences around the control level are noise.

Chains of the proteins cited; added tags and fusions are not shown. Lines headed by an entry give the natural chain unless they say otherwise; changes in a name come on top.
UniProt P0ADD5: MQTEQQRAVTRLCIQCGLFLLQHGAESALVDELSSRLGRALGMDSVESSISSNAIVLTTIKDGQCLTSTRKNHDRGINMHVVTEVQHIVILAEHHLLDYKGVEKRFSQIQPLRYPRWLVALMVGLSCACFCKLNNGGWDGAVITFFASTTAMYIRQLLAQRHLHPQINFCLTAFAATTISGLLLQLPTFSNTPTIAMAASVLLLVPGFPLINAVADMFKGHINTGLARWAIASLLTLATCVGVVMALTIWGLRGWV

molecular target: UniProt P0ADD5; experiment: log2 fold change of tryptic peptide abundance, ligand vs vehicle (limited proteolysis) (log2 ratio); higher = more trypsin-susceptible (destabilized); conditions: peptide sequence: FSQIQPLRYPR; peptide start residue: 106; ligand concentration: 5 mM; sample: E. coli desalted lysate; replicate design: treated before aliquoting
Protocol: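 HT-PELSA: desalted E. coli K-12 BW25113 lysate (with 12 mM MgCl2) incubated with 5 mM ATP (pH 7) or water for 30 min at 25 C, then a 4 min trypsin pulse at 22 C. Peptides were quantified by DIA-MS (4 replicates). Value is the peptide log2 fold change (treated/control); negative = stabilized. Scale: negative = ligand-stabilized region.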
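Further: lysate desalted by size exclusion to strip endogenous ATP, peptide intensities built from DIA-NN precursor signals, and peptides missing any value discarded before comparison.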

Q: Which log2 fold change does the source give for `Nc1ncnc2c1ncn2[C@@H]1O[C@H](COP(=O)(O)OP(=O)(O)OP(=O)(O)O)[C@@H](O)[C@H]1O` [adenosine 5'-triphosphate] here?
A: 0.187
